Measurements as given in PubChem BioAssay AID248 (DTP/NCI, 2004).
The list shows only some results of the screen, not a fair sample: it gathers tests that were run many times, whatever their T/C, doses with no T/C, and many T/C values between a quarter and a half above the control. Other doses and runs of a compound stand elsewhere. T/C is the treated group as % of the vehicle group. Some entries give survivors of the animals treated and no T/C: the source holds a T/C of zero for them, seemingly a mark for toxic or unscored doses. Some survivor counts are full or nearly so, which does not show that the dose was tolerated: the source hardly ever lists a survival T/C far under the control, and the zero likely stands for such cases as well. Counts of survivors are from the toxicity check (mostly the fifth day) where no day follows; animals may have died later. Schedules are NCI's codes, taken here to give the interval after Q, in days (D) or hours (H), and the number of doses after X. Some entries hold several experiments; the results are listed from low to high. Some schedules carry Z or #; the key to these is not given. For survival time, the PubChem record calls one and a half times the control and up active, and a quarter to a half above the control has no call in these data; cut-offs in other NCI protocols can differ.

Test system: L1210 leukemia ip in BDF1 mice, survival T/C
Experiment: NCI In Vivo Anticancer Drug Screen. Data for tumor model L1210 Leukemia (intraperitoneal) in B6D2F1 (BDF1) mice
Settings: T/C endpoint: mean survival time, higher T/C = longer survival
[1] = dose: 400.0 mg/kg/injection, schedule: Q01DX001 (ip), vehicle: carboxymethylcellulose (CMC)
[2] = dose: 200.0 mg/kg/injection, schedule: Q01DX009 (ip), vehicle: saline with Tween-80
[3] = dose: 400.0 mg/kg/injection, schedule: Q01DX009 (ip), vehicle: Klucel (hydroxypropylcellulose) (HPC)
[4] = dose: 200.0 mg/kg/injection, schedule: Q01DX009 (ip), vehicle: saline
[5] = dose: 400.0 mg/kg/injection, schedule: Q04DX003 (ip), vehicle: saline
[6] = dose: 100.0 mg/kg/injection, schedule: Q01DX001 (ip), vehicle: carboxymethylcellulose (CMC)
[7] = dose: 200.0 mg/kg/injection, schedule: Q01DX001 (ip), vehicle: carboxymethylcellulose (CMC)
[8] = dose: 200.0 mg/kg/injection, schedule: Q04DX002 (ip), vehicle: saline
[9] = dose: 400.0 mg/kg/injection, schedule: Q04DX002 (ip), vehicle: saline
[10] = dose: 400.0 mg/kg/injection, schedule: Q04DX003 (ip), vehicle: saline with Tween-80
[11] = dose: 100.0 mg/kg/injection, schedule: Q01DX009 (ip), vehicle: saline with Tween-80
[12] = dose: 400.0 mg/kg/injection, schedule: Q04DX002 (ip), vehicle: saline with Tween-80
[13] = dose: 200.0 mg/kg/injection, schedule: Q01DX001 (ip), vehicle: saline
[14] = dose: 400.0 mg/kg/injection, schedule: Q01DX001 (ip), vehicle: saline

In the case of `CCCCOC(=O)c1[nH]cnc1/N=N\N(C)C`, the T/C (dose: 42.0 mg/kg/injection, schedule: Q01DX015 (ip), vehicle: other) was 132 % of control, the T/C (dose: 80.0 mg/kg/injection, schedule: Q01DX009 (ip), vehicle: carboxymethylcellulose (CMC)) was 127 and 131 % of control and the survivor count (dose: 160.0 mg/kg/injection, schedule: Q01DX009 (ip), vehicle: carboxymethylcellulose (CMC)) was 6 of 6. For the same molecule, the T/C (dose: 176.0 mg/kg/injection, schedule: Q01DX001 (ip), vehicle: carboxymethylcellulose (CMC)) was 125 % of control, the T/C (dose: 200.0 mg/kg/injection, schedule: Q01DX001 (ip), vehicle: other) was 125 % of control and the survivor count (dose: 200.0 mg/kg/injection, schedule: Q01DX015 (ip), vehicle: other) was 6 of 6. For the same molecule, the T/C (dose: 268.0 mg/kg/injection, schedule: Q01DX001 (ip), vehicle: carboxymethylcellulose (CMC)) was 129 % of control, the survivor count (dose: 320.0 mg/kg/injection, schedule: Q01DX009 (ip), vehicle: carboxymethylcellulose (CMC)) was 4 of 6 and the T/C [1] was 135 % of control. The T/C (dose: 400.0 mg/kg/injection, schedule: Q01DX001 (ip), vehicle: other) was 144 % of control and the T/C (dose: 600.0 mg/kg/injection, schedule: Q01DX001 (ip), vehicle: carboxymethylcellulose (CMC)) was 125 % of control.

For `CN(C)N=Nc1ccccc1Cl`, the T/C (dose: 50.0 mg/kg/injection, schedule: Q01DX009 (ip), vehicle: Klucel (hydroxypropylcellulose) (HPC)) was 125 % of control, the T/C (dose: 100.0 mg/kg/injection, schedule: Q01DX009 (ip), vehicle: Klucel (hydroxypropylcellulose) (HPC)) was 139 % of control and the survivor count (dose: 200.0 mg/kg/injection, schedule: Q01DX009 (ip), vehicle: Klucel (hydroxypropylcellulose) (HPC)) was 0 of 6 and 5 of 6. For the same molecule, the survivor count [2] was 6 of 6 and the survivor count [3] was 3 of 6.

For `CCN(CC)CCOc1ccc(OC)cc1`, the survivor count [4] was 0 of 6, the survivor count (dose: 200.0 mg/kg/injection, schedule: Q04DX003 (ip), vehicle: saline) was 2 of 6 and the survivor count [5] was 0 of 6.

In the case of `Nc1nc(N)c2c(n1)CN(Cc1ccccc1)C2`, the survivor count [6] was 0 of 4 and 1 of 4, the survivor count [7] was 0 of 4 and the survivor count [1] was 0 of 4.

With `Cc1cc(O)ccc1C1=[N+](C)CC(C)S1` (centres undefined) the survivor count (dose: 100.0 mg/kg/injection, schedule: Q04DX002 (ip), vehicle: saline) was 0 of 3, the survivor count [8] was 0 of 3 and the survivor count [9] was 0 of 3.

In the case of `O=C(O)C[As](=O)(O)O`, the survivor count (dose: 15.0 mg/kg/injection, schedule: Q01DX009 (ip), vehicle: saline) was 1 of 3.

For `C=C1C(=O)O[C@H]2C1[C@H](OC(=O)/C(C)=C\COC(C)=O)C[C@]1(CO1)[C@@H]1[C@H](O)[C@H]3O[C@@]3(C)[C@@H]12` (some centres undefined), the survivor count (dose: 50.0 mg/kg/injection, schedule: Q01DX009 (ip), vehicle: saline) was 1 of 3, the survivor count (dose: 100.0 mg/kg/injection, schedule: Q01DX009 (ip), vehicle: saline) was 0 of 3 and the survivor count [4] was 0 of 3. For the same molecule, the survivor count (dose: 200.0 mg/kg/injection, schedule: Q04DX002 (ip), vehicle: other) was 0 of 3 and the survivor count (dose: 400.0 mg/kg/injection, schedule: Q04DX002 (ip), vehicle: other) was 0 of 3.

With `COc1cc(N(CCCl)CCCl)ccc1CN1CCCN(Cc2ccc(N(CCCl)CCCl)cc2OC)C1c1ccccc1O` the survivor count (dose: 400.0 mg/kg/injection, schedule: Q04DX003 (ip), vehicle: Klucel (hydroxypropylcellulose) (HPC)) was 6 of 6.

For `CCCCC(CC)CO.[Ti]` (centres undefined), the survivor count [10] was 0 of 6.

`CC(=O)Nc1cc(C(=O)Nc2cccc(C3=NCCN3)c2)ccc1C(=O)Nc1cccc(C2=NCCN2)c1` was tested, and the survivor count (dose: 2.7 mg/kg/injection, schedule: Q01DX Z (ip), vehicle: methylcellulose (MC)) was 0 of 6, the survivor count (dose: 4.0 mg/kg/injection, schedule: Q01DX Z (ip), vehicle: methylcellulose (MC)) was 0 of 6 and the survivor count (dose: 6.0 mg/kg/injection, schedule: Q01DX Z (ip), vehicle: methylcellulose (MC)) was 0 of 6. For the same molecule, the survivor count (dose: 9.0 mg/kg/injection, schedule: Q01DX Z (ip), vehicle: methylcellulose (MC)) was 0 of 6.

In the case of `CCCNCCC[P+](c1ccccc1)(c1ccccc1)c1ccccc1`, the survivor count [8] was 0 of 3 and the survivor count [9] was 1 of 3.

`NC(=S)N/N=C1\c2ccccc2-c2c(F)c(F)c(F)c(F)c21` was tested, and the survivor count (dose: 40.0 mg/kg/injection, schedule: Q01DX001 (ip), vehicle: carboxymethylcellulose (CMC)) was 1 of 4, the survivor count (dose: 50.0 mg/kg/injection, schedule: Q01DX001 (ip), vehicle: carboxymethylcellulose (CMC)) was 0 of 4 and the survivor count (dose: 80.0 mg/kg/injection, schedule: Q01DX001 (ip), vehicle: carboxymethylcellulose (CMC)) was 0 of 4. For the same molecule, the survivor count [6] was 0 of 4, the survivor count [7] was 0 of 4 and the survivor count [1] was 0 of 4.

`Cc1ccnc(NC(C#N)c2ccccc2)c1` (centres undefined) was tested, and the survivor count [11] was 0 of 3 and the survivor count [2] was 0 of 3.

For `N/C([Se])=N\N=C/c1ccncc1`, the survivor count (dose: 100.0 mg/kg/injection, schedule: Q01DX001 (ip), vehicle: Klucel (hydroxypropylcellulose) (HPC)) was 0 of 6, the survivor count (dose: 200.0 mg/kg/injection, schedule: Q01DX001 (ip), vehicle: Klucel (hydroxypropylcellulose) (HPC)) was 0 of 6 and the survivor count (dose: 400.0 mg/kg/injection, schedule: Q01DX001 (ip), vehicle: Klucel (hydroxypropylcellulose) (HPC)) was 0 of 6.

`Cc1c(Cl)cccc1NC(=O)Nc1nccs1` was tested, and the survivor count (dose: 400.0 mg/kg/injection, schedule: Q01DX009 (ip), vehicle: saline with Tween-80) was 3 of 3 and 6 of 6 and the survivor count [12] was 1 of 3.

`C/C(CCCCl)=N/N=C(N)N` was tested, and the survivor count (dose: 115.0 mg/kg/injection, schedule: Q04DX003 (ip), vehicle: acetone) was 2 of 6, the survivor count (dose: 170.0 mg/kg/injection, schedule: Q01DX009 (ip), vehicle: saline with Tween-80) was 0 of 6 and the survivor count (dose: 170.0 mg/kg/injection, schedule: Q04DX003 (ip), vehicle: acetone) was 1 of 6. For the same molecule, the survivor count (dose: 255.0 mg/kg/injection, schedule: Q01DX009 (ip), vehicle: saline with Tween-80) was 0 of 6.

With `OC(CNc1ccccc1)CN1CCCC1` (centres undefined) the survivor count [5] was 2 of 6.

`CN(Cc1ccccc1)C(=O)NC1CCCCC1` was tested, and the T/C [11] was 133 % of control.

In the case of `c1ccc(CCNCc2ccc(CNCCc3ccccc3)cc2)cc1`, the survivor count [10] was 3 of 6.

In the case of `COc1cc(/C=N\N=C(/C)c2ccc(C)cc2C)cc(OC)c1OC`, the survivor count [12] was 3 of 3.

In the case of `CC1(C(Cl)Cl)CCCCC1=O` (centres undefined), the survivor count [13] was 3 of 6 and the survivor count [14] was 2 of 6.

With `Cc1cc[n+](Cc2cc3ccccc3[nH]c2=O)cc1` the survivor count (dose: 100.0 mg/kg/injection, schedule: Q01DX001 (ip), vehicle: saline) was 3 of 6, the survivor count [13] was 0 of 6 and the survivor count [14] was 0 of 6.

For `CN1CCCC1CCNc1nc(C(Cl)(Cl)Cl)nc2ccc(Cl)cc12` (centres undefined), the survivor count (dose: 200.0 mg/kg/injection, schedule: Q04DX003 (ip), vehicle: saline with Tween-80) was 0 of 6 and the survivor count [10] was 0 of 6.

In the case of `O=C(O)C1Cc2c([nH]c3ccccc23)C(CCCCO)N1` (centres undefined), the survivor count [7] was 2 of 4 and the survivor count [1] was 2 of 4.

`O=c1c(O)c(O)c1=O` was tested, and the survivor count (dose: 300.0 mg/kg/injection, schedule: Q01DX001 (ip), vehicle: carboxymethylcellulose (CMC)) was 1 of 6.

In the case of `O=[N+]([O-])c1ccc(Cc2ccccn2)cc1`, the survivor count [3] was 3 of 6.

With `CCOC(=O)NC#N` (tested in a mixture with another compound) the survivor count (dose: 75.0 mg/kg/injection, schedule: Q01DX001 (ip), vehicle: saline) was 1 of 6, the survivor count (dose: 150.0 mg/kg/injection, schedule: Q01DX001 (ip), vehicle: saline) was 0 of 6 and the survivor count (dose: 300.0 mg/kg/injection, schedule: Q01DX001 (ip), vehicle: saline) was 0 of 6.
